No constants are given. Whether binding was seen depends on the method and setting. Some entries that bind do so weakly or less than the wild type.
Target: recombinant human transferrin receptor (TfR) protein (human) (UniProt P02786)
Experiment: SPR; Biacore 3000, CM5 chip, receptors immobilised by EDC/NHS coupling (TfR 58 fmol/mm^2, LRP-1 0.025 fmol/mm^2); peptides injected at 0.25-4 uM, 5 uL/min, 25°C, 10 mM HEPES, 150 mM NaCl, 1.5 mM CaCl2, 1 mM EGTA, 0.005% Tween 20, pH 7.4; Langmuir 1:1 model, global fit; both purified

The chains behind the UniProt entries cited, without tags or fusion partners. Residues count along the entry.
UniProt P02786, residues 101-760: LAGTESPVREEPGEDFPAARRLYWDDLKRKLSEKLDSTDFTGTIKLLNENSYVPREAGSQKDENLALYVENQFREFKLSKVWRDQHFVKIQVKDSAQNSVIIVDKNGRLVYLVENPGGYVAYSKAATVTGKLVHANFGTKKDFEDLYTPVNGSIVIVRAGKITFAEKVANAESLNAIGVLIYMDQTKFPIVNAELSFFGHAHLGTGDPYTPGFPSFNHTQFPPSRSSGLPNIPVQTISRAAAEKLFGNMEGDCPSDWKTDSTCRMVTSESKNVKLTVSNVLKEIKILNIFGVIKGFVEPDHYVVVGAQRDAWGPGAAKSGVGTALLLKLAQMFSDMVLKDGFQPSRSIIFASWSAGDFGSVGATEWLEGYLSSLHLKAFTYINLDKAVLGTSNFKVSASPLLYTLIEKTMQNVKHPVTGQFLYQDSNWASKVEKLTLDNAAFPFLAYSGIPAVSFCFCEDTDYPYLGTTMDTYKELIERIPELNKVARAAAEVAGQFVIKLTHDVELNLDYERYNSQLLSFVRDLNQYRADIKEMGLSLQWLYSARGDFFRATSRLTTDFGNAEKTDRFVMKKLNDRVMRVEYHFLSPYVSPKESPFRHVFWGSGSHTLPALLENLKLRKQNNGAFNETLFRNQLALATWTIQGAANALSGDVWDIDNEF

binding | Binder
binds | FRCLVENRGDVPFVTRIR (C-terminal amide) [MTfp (peptide 1), peptide derived from melanotransferrin]
binds | GYRPVHNIRGHWAPGK (C-terminal amide) [GYR (peptide 2)]
